PubChem BioAssay AID504805 | Drosophila RNAi Screening Center – 2011
Only reagents picked out of a larger screen are listed. 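Phenotypes are words from visual inspection of images, not measured scores.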 A plus sign joins genes that one reagent is predicted to hit.

- Screen: 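Knock-downs that cause poly(A) RNA to build up in the nucleus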 (primary screen)
- Cell system: Drosophila S2R+ cells
- Knock-down reagent: long dsRNA against Drosophila genes, 0.25 µg dsRNA per well
- Duration: 4 days
- Measured: 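Microscope images of cells stained for poly(A) RNA with a fluorescent oligo-dT probe and for DNA, assessed visually, with a phenotype description given for each replicate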

target | dsRNA | phenotype, replicate 1 | phenotype, replicate 2
CG9098 | DRSC03136 | poly(A) RNA held back in the nucleus | –
CG9760 | DRSC11101 | poly(A) RNA held back in the nucleus | –
Arl4 | DRSC17156 | poly(A) RNA held back in the nucleus | –
Hpd | DRSC11670 | poly(A) RNA held back in the nucleus | –
Ipk2 | DRSC00357 | poly(A) RNA held back in the nucleus | –
Pabp2 | DRSC07501 | poly(A) RNA held back in the nucleus | poly(A) RNA held back in the nucleus
CG3592 | DRSC18315 | poly(A) RNA held back in the nucleus | –
Ae2 | DRSC10969 | poly(A) RNA held back in the nucleus | –
CG6686 | DRSC02979 | poly(A) RNA held back in the nucleus | –
trem | DRSC15575 | poly(A) RNA held back in the nucleus | –
CG34396 | DRSC04245 | poly(A) RNA held back in the nucleus | –
CG15745 (retired record) | DRSC19711 | poly(A) RNA held back in the nucleus | –
IscU | DRSC16572 | poly(A) RNA held back in the nucleus | –
e(y)2 | DRSC19640 | poly(A) RNA held back in the nucleus | –
gw | DRSC17160 | poly(A) RNA held back in the nucleus | –
flfl | DRSC16474 | poly(A) RNA held back in the nucleus | –
CG1409 | DRSC17910 | poly(A) RNA held back in the nucleus | –
ric8b + ric8a | DRSC18104 | poly(A) RNA held back in the nucleus | poly(A) RNA held back in the nucleus
CG1304 | DRSC20494 | poly(A) RNA held back in the nucleus | –
Dscam1 | DRSC05048 | poly(A) RNA held back in the nucleus | –
RpL18 | DRSC11016 | poly(A) RNA held back in the nucleus | –
RpL18 | DRSC22323 | poly(A) RNA held back in the nucleus | poly(A) RNA held back in the nucleus
Est-Q | DRSC11835 | poly(A) RNA held back in the nucleus | –
CG5989 | DRSC10565 | poly(A) RNA held back in the nucleus | –
Tk | DRSC21972 | poly(A) RNA held back in the nucleus | –

Entries above whose gene name starts with I or i (2):
target | dsRNA | phenotype, replicate 1 | phenotype, replicate 2
Ipk2 | DRSC00357 | poly(A) RNA held back in the nucleus | –
IscU | DRSC16572 | poly(A) RNA held back in the nucleus | –

More records follow.
target | dsRNA | phenotype, replicate 1 | phenotype, replicate 2
bnl | DRSC16913 | poly(A) RNA held back in the nucleus | –
CG6656 | DRSC16085 | poly(A) RNA held back in the nucleus | –
emc | DRSC23238 | poly(A) RNA held back in the nucleus | –
CG32767 | DRSC18386 | poly(A) RNA held back in the nucleus | –
wfs1 | DRSC15676 | poly(A) RNA held back in the nucleus | –
CG4440 | DRSC02747 | poly(A) RNA held back in the nucleus | –
RpS12 | DRSC11270 | poly(A) RNA held back in the nucleus | –
rdgA | DRSC18036 | poly(A) RNA held back in the nucleus | –
Paip2 | DRSC14504 | poly(A) RNA held back in the nucleus | –
mid | DRSC02977 | poly(A) RNA held back in the nucleus | –
CG42673 | DRSC08989 | poly(A) RNA held back in the nucleus | –
CG42673 | DRSC08991 | poly(A) RNA held back in the nucleus | –
Trpml + CG42638 | DRSC11032 | poly(A) RNA held back in the nucleus | –
Culd | DRSC10262 | poly(A) RNA held back in the nucleus | –
CG15458 | DRSC20529 | poly(A) RNA held back in the nucleus | –
CG8461 | DRSC16424 | poly(A) RNA held back in the nucleus | –
S1P | DRSC11810 | poly(A) RNA held back in the nucleus | –
Ho | DRSC14939 | poly(A) RNA held back in the nucleus | –
kni | DRSC23093 | poly(A) RNA held back in the nucleus | –
RpS15Aa + RpS15Ab | DRSC19831 | poly(A) RNA held back in the nucleus | –
CG30105 | DRSC05668 | poly(A) RNA held back in the nucleus | –
CG8172 | DRSC22113 | poly(A) RNA held back in the nucleus | –
CG15464 (retired record) | DRSC22086 | poly(A) RNA held back in the nucleus | –
pygo | DRSC14322 | poly(A) RNA held back in the nucleus | –
CG32267 | DRSC21561 | poly(A) RNA held back in the nucleus | –
peng | DRSC20583 | poly(A) RNA held back in the nucleus | –
Npc2a | DRSC00698 | poly(A) RNA held back in the nucleus | –
bves | DRSC20554 | poly(A) RNA held back in the nucleus | –
CG32572 | DRSC19526 | poly(A) RNA held back in the nucleus | –
RpL31 | DRSC06716 | poly(A) RNA held back in the nucleus | cells look to be dying
CG1136 | DRSC08184 | poly(A) RNA held back in the nucleus | –
simj | DRSC10942 | poly(A) RNA held back in the nucleus | –
x16 | DRSC00960 | poly(A) RNA held back in the nucleus | –
Pcif1 | DRSC11655 | poly(A) RNA held back in the nucleus | –
nab | DRSC08456 | poly(A) RNA held back in the nucleus | –
CG32055 | DRSC10666 | poly(A) RNA held back in the nucleus | –
Sol1 | DRSC15271 | poly(A) RNA held back in the nucleus | –
CG7953 | DRSC01902 | poly(A) RNA held back in the nucleus | –
ClC-a | DRSC14947 | poly(A) RNA held back in the nucleus | –
tum | DRSC07575 | cells much enlarged | –
KP78a + KP78b | DRSC23338 | poly(A) RNA held back in the nucleus | –
